By UniProt entry, the sequences of proteins in these tests, tags left out. Where a name states a change or a piece, a line headed by the entry shows the natural chain unless it says otherwise.
UniProt Q9BPY3: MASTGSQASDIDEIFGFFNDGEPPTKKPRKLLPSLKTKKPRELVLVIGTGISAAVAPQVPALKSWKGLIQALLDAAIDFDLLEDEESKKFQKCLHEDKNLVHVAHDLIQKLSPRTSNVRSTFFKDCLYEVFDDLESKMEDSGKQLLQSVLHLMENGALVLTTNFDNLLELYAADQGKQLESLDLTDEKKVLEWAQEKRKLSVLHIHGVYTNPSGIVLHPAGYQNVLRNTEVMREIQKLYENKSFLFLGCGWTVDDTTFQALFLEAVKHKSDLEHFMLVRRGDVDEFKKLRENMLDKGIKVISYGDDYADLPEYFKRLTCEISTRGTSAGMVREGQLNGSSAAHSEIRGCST
UniProt Q96SB8: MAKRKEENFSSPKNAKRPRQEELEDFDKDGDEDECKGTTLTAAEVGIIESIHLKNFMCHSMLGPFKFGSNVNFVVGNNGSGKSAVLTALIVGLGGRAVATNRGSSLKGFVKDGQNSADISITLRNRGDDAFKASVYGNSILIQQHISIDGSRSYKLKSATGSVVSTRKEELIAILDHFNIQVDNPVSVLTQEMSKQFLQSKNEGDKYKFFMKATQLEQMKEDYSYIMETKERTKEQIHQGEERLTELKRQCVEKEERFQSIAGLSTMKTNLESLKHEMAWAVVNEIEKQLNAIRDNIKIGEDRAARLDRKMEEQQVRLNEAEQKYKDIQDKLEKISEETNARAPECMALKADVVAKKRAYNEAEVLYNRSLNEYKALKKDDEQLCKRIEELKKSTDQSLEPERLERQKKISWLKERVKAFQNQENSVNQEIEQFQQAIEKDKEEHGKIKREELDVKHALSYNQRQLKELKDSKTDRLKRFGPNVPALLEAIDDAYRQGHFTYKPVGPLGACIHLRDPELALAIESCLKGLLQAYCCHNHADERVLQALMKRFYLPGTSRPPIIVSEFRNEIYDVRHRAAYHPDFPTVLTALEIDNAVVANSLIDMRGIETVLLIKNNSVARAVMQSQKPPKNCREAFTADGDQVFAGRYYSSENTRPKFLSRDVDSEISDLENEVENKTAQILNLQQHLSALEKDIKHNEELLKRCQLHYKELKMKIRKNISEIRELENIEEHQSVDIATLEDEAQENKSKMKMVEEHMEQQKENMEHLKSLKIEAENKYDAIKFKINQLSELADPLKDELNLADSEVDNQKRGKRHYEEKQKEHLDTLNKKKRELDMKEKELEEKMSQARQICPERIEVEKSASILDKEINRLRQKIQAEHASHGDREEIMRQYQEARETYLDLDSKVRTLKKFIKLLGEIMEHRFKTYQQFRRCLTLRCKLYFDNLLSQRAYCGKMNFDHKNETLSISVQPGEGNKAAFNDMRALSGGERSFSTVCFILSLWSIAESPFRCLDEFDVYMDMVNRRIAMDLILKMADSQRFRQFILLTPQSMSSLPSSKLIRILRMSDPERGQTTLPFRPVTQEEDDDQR
UniProt Q99459: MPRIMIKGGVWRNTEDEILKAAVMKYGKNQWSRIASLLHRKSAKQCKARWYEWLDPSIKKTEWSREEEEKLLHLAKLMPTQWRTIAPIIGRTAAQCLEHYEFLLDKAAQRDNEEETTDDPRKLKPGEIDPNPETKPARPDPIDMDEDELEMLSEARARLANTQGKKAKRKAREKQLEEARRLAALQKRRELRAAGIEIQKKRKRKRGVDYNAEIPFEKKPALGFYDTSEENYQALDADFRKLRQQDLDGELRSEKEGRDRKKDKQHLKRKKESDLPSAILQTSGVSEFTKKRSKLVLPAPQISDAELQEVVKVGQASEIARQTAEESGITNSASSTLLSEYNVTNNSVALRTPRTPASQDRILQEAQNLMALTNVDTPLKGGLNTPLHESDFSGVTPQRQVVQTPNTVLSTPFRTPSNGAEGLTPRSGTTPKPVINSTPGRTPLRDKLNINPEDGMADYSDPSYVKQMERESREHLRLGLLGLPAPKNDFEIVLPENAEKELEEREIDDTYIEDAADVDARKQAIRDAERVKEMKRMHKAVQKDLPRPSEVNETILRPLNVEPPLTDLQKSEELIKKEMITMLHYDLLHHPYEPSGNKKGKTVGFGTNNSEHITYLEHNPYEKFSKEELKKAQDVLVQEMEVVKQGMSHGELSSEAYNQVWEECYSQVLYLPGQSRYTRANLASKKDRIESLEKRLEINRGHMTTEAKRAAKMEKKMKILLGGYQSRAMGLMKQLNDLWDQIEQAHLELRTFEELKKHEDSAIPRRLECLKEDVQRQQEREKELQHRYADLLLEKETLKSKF
UniProt Q9BR61: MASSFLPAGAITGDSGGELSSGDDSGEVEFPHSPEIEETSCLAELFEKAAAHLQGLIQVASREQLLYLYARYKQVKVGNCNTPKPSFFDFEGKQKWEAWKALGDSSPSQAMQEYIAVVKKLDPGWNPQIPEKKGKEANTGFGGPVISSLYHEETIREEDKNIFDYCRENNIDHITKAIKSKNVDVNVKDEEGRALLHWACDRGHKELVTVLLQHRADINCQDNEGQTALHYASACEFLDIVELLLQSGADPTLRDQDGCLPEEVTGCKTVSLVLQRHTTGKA
UniProt Q9BTT0: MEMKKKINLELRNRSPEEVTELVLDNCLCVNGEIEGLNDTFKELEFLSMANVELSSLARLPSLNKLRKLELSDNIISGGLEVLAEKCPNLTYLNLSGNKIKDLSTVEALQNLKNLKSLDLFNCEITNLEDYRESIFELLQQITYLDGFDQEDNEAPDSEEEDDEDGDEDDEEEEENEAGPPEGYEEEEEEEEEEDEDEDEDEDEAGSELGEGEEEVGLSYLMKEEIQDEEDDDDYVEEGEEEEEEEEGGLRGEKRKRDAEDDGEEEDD
UniProt Q99598: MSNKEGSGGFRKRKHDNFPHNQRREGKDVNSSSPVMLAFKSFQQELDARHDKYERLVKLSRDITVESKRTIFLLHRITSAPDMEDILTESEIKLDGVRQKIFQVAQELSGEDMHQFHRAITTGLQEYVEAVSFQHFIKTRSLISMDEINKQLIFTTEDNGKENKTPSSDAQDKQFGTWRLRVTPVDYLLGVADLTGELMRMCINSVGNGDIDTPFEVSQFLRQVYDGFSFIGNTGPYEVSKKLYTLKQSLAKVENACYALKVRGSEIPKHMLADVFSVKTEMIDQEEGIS
UniProt Q9BUK6: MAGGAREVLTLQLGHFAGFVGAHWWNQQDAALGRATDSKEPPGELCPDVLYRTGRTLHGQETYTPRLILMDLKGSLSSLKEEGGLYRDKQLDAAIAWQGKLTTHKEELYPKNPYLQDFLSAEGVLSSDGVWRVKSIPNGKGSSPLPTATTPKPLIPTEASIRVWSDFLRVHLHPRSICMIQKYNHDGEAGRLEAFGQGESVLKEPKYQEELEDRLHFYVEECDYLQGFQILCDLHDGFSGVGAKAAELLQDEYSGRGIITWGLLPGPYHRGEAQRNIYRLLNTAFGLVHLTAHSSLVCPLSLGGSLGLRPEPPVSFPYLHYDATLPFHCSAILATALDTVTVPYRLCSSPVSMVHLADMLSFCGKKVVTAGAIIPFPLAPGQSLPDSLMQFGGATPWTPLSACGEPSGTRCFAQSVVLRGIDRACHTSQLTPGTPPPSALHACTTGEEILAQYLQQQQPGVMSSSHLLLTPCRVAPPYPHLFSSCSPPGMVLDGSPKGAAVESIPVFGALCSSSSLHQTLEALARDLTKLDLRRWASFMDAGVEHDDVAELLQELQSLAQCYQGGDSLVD
UniProt Q99766: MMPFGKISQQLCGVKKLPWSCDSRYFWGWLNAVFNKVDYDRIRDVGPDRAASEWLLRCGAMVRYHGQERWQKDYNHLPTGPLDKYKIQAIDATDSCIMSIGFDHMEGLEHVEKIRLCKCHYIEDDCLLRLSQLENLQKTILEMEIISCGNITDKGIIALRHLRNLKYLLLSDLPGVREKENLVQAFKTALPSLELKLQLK
UniProt Q99633: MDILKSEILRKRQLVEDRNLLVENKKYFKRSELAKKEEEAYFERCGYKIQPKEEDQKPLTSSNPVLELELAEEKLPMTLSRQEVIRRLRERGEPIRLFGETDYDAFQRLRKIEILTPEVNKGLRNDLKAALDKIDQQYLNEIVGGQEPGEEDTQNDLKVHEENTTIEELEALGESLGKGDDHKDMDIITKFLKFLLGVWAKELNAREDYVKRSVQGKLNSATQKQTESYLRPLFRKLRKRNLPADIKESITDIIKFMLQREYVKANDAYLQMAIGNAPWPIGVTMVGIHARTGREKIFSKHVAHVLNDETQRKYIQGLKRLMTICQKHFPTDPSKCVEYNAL
UniProt Q9BSL1: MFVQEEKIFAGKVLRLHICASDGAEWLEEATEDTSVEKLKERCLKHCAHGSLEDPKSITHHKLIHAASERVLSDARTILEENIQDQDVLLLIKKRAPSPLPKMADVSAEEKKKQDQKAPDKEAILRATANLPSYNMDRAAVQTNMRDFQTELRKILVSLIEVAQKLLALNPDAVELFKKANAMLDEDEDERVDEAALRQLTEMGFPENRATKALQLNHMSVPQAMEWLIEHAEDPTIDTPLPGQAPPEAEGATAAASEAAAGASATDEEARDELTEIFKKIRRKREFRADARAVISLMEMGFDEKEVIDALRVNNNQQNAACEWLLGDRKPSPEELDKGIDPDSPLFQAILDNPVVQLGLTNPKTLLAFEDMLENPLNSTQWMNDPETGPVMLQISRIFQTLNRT
UniProt Q9BTU6: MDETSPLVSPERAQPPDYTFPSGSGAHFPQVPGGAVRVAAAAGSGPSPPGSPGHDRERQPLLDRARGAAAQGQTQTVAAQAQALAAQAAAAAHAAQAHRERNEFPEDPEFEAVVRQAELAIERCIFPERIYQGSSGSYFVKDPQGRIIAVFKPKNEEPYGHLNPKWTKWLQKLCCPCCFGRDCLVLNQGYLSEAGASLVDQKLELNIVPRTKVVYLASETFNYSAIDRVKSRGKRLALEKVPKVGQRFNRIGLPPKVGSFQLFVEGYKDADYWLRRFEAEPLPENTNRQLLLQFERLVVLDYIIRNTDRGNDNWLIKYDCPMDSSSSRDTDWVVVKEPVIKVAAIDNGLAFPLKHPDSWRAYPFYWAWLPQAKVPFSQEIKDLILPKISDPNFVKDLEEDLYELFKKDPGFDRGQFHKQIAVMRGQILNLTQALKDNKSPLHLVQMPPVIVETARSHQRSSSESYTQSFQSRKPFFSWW
UniProt Q99767, whole entry: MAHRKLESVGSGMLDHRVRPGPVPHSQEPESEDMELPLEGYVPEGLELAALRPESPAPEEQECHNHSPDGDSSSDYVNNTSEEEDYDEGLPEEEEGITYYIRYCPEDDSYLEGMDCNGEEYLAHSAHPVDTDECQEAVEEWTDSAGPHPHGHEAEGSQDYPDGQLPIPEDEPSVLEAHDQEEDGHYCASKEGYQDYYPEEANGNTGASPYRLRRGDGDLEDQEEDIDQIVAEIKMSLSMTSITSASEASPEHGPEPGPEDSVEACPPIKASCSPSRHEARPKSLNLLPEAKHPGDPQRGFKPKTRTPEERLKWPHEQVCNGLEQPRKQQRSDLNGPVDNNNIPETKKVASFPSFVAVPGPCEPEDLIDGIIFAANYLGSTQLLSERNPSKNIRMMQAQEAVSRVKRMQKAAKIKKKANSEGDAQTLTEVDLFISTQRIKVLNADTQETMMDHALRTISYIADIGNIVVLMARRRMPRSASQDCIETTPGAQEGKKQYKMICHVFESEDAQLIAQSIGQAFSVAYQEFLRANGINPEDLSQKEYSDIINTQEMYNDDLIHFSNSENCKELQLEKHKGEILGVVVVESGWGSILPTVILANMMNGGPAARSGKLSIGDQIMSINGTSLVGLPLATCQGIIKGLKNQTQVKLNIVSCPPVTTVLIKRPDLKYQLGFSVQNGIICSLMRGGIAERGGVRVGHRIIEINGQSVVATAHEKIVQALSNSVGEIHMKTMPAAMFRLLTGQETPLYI
UniProt Q99719: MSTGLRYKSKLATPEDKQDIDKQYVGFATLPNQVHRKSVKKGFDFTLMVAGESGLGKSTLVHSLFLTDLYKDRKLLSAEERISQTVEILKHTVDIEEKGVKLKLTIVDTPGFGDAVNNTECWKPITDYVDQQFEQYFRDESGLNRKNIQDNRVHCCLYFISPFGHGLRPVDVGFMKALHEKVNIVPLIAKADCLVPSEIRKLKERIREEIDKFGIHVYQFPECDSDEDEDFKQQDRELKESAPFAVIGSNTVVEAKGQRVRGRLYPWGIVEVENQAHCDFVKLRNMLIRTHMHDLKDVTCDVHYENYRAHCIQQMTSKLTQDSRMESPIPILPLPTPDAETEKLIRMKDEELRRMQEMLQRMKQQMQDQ
UniProt Q9BV20: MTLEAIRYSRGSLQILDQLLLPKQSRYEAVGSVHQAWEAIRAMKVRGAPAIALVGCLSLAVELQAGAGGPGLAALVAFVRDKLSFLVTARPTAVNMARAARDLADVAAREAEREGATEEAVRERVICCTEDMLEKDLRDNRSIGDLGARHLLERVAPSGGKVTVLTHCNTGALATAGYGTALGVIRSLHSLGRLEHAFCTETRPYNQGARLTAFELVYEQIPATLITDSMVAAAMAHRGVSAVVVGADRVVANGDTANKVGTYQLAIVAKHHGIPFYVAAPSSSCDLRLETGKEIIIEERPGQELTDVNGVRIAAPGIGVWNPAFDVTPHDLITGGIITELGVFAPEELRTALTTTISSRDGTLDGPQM

± gives the standard deviation of the averaged measurements. The list shows a part of the results, in another mix than the full data.
Each target was assayed with Nc1ncnc2c1ncn2[C@@H]1O[C@H](COP(=O)(O)OP(=O)(O)NP(=O)(O)O)[C@@H](O)[C@H]1O [adenylyl imidodiphosphate] (assay: NP40-soluble protein abundance relative to vehicle (solubility fold change) (ratio); higher = more soluble protein in presence of AMP-PNP). Conditions: concentration: 8mM.
Outline: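 Values are fold changes against the detergent-processed vehicle, based on vsn-normalised intensities. Jurkat crude lysate was treated at eight concentrations from 0.1 to 10 mM (10 min at room temperature, then 3 min at 37 °C), solubilised with 0.8% NP40 and benzonase, ultracentrifuged and analysed by TMT-labelled LC-MS/MS over three independent experiments.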
UniProt Q9BSH4 showed an NP40-soluble protein abundance of 1.07 ± 0.095. In the case of UniProt Q9BPY3 and related entries, the NP40-soluble protein abundance is reported as 0.997 ± 0.02. Target UniProt Q9BTY7 has an NP40-soluble protein abundance of 0.923 ± 0.018. NUP85 (UniProt Q9BW27) gave an NP40-soluble protein abundance of 0.967 ± 0.018. For UniProt Q96RU2-2, the NP40-soluble protein abundance was 0.98 ± 0.017. UniProt Q9BUB5 and related entries showed an NP40-soluble protein abundance of 1.05 ± 0.023. SMC6 (UniProt Q96SB8) showed an NP40-soluble protein abundance of 0.977 ± 0.041. SDF2 (UniProt Q99470) showed an NP40-soluble protein abundance of 0.902 ± 0.067. CDC5L (UniProt Q99459) showed an NP40-soluble protein abundance of 1.13 ± 0.076. In the case of GPATCH1 (UniProt Q9BRR8), the NP40-soluble protein abundance is reported as 1.04 ± 0.043. In the case of UniProt Q96RS0 and related entries, the NP40-soluble protein abundance is reported as 0.999 ± 0.023. Work on ACBD6 (UniProt Q9BR61) yielded an NP40-soluble protein abundance of 0.975 ± 0.02. With UniProt Q9BTT0 and related entries the NP40-soluble protein abundance was 0.9134 ± 0.0026. Target UniProt Q9BTD8 and related entries has an NP40-soluble protein abundance of 1.272 ± 0.0094. In the case of UniProt Q9BXS6 and related entries, the NP40-soluble protein abundance is reported as 1.01 ± 0.033. TSNAX (UniProt Q99598) showed an NP40-soluble protein abundance of 1.03 ± 0.043. Work on ADO (UniProt Q96SZ5) yielded an NP40-soluble protein abundance of 0.99 ± 0.039. In the case of UniProt Q9BRX8 and related entries, the NP40-soluble protein abundance is reported as 1 ± 0.02. UniProt Q9BUK6 and related entries showed an NP40-soluble protein abundance of 0.991 ± 0.025. Target UniProt Q9BSD7 has an NP40-soluble protein abundance of 1.19 ± 0.073. UniProt Q96TA2 and related entries was tested, and the NP40-soluble protein abundance was 0.977 ± 0.046. Work on UniProt Q9BVS4 and related entries yielded an NP40-soluble protein abundance of 0.977 ± 0.02. KLF16 (UniProt Q9BXK1) gave an NP40-soluble protein abundance of 1 ± 0.033. For UniProt Q99766, the NP40-soluble protein abundance was 0.963 ± 0.018. In the case of PRPF18 (UniProt Q99633), the NP40-soluble protein abundance is reported as 1.05 ± 0.014. UniProt Q96ST2 and related entries showed an NP40-soluble protein abundance of 1.03 ± 0.042. For TBCB (UniProt Q99426), the NP40-soluble protein abundance was 1.05 ± 0.063. UBAC1 (UniProt Q9BSL1) gave an NP40-soluble protein abundance of 0.932 ± 0.036. Work on WDR77 (UniProt Q9BQA1) yielded an NP40-soluble protein abundance of 0.991 ± 0.03. For PI4K2A (UniProt Q9BTU6), the NP40-soluble protein abundance was 0.9894 ± 0.0057. Work on UniProt Q96SK2 and related entries yielded an NP40-soluble protein abundance of 1.05 ± 0.035. UniProt Q99767-2|Q99767 was tested, and the NP40-soluble protein abundance was 0.96 ± 0.03. In the case of UniProt Q99719 and related entries, the NP40-soluble protein abundance is reported as 1.06 ± 0.097. Target MRI1 (UniProt Q9BV20) has an NP40-soluble protein abundance of 0.983 ± 0.043. Target MRPL32 (UniProt Q9BYC8) has an NP40-soluble protein abundance of 0.942 ± 0.037. HINT2 (UniProt Q9BX68) gave an NP40-soluble protein abundance of 0.991 ± 0.022. For “UniProt Q9BRR9-2|Q9BRR9-4|Q9BRR9-5|R4GN15”, the NP40-soluble protein abundance was 0.961 ± 0.013. Work on DCTN5 (UniProt Q9BTE1) yielded an NP40-soluble protein abundance of 1.02 ± 0.016.

Same assay, conditions: concentration: 10mM
UniProt Q9BSH4 was tested, and the NP40-soluble protein abundance was 1.07 ± 0.058. UniProt Q9BPY3 and related entries gave an NP40-soluble protein abundance of 0.972 ± 0.027. Work on UniProt Q9BTY7 yielded an NP40-soluble protein abundance of 0.872 ± 0.048. NUP85 (UniProt Q9BW27) showed an NP40-soluble protein abundance of 0.94 ± 0.032. In the case of UniProt Q96RU2-2, the NP40-soluble protein abundance is reported as 0.969 ± 0.052. Work on UniProt Q9BUB5 and related entries yielded an NP40-soluble protein abundance of 1.05 ± 0.032. In the case of SMC6 (UniProt Q96SB8), the NP40-soluble protein abundance is reported as 1.05 ± 0.072. In the case of SDF2 (UniProt Q99470), the NP40-soluble protein abundance is reported as 0.954 ± 0.019. In the case of CDC5L (UniProt Q99459), the NP40-soluble protein abundance is reported as 1.2 ± 0.11. Work on GPATCH1 (UniProt Q9BRR8) yielded an NP40-soluble protein abundance of 1.08 ± 0.059. In the case of UniProt Q96RS0 and related entries, the NP40-soluble protein abundance is reported as 1.033 ± 0.009. Target ACBD6 (UniProt Q9BR61) has an NP40-soluble protein abundance of 0.99 ± 0.012. With UniProt Q9BTT0 and related entries the NP40-soluble protein abundance was 0.907 ± 0.043. UniProt Q9BTD8 and related entries was tested, and the NP40-soluble protein abundance was 1.32 ± 0.071. In the case of UniProt Q9BXS6 and related entries, the NP40-soluble protein abundance is reported as 1.05 ± 0.05. Work on TSNAX (UniProt Q99598) yielded an NP40-soluble protein abundance of 1.02 ± 0.061. In the case of ADO (UniProt Q96SZ5), the NP40-soluble protein abundance is reported as 1.04 ± 0.041. In the case of UniProt Q9BRX8 and related entries, the NP40-soluble protein abundance is reported as 0.921 ± 0.033. UniProt Q9BUK6 and related entries showed an NP40-soluble protein abundance of 0.996 ± 0.021. With UniProt Q9BSD7 the NP40-soluble protein abundance was 1.17 ± 0.058. Work on UniProt Q96TA2 and related entries yielded an NP40-soluble protein abundance of 0.968 ± 0.061. Target UniProt Q9BVS4 and related entries has an NP40-soluble protein abundance of 0.996 ± 0.026. KLF16 (UniProt Q9BXK1) gave an NP40-soluble protein abundance of 0.998 ± 0.045. UniProt Q99766 showed an NP40-soluble protein abundance of 0.979 ± 0.036. Work on PRPF18 (UniProt Q99633) yielded an NP40-soluble protein abundance of 1.09 ± 0.06. Target UniProt Q96ST2 and related entries has an NP40-soluble protein abundance of 1.08 ± 0.058. Work on TBCB (UniProt Q99426) yielded an NP40-soluble protein abundance of 1.02 ± 0.045. UBAC1 (UniProt Q9BSL1) showed an NP40-soluble protein abundance of 0.933 ± 0.034. Target WDR77 (UniProt Q9BQA1) has an NP40-soluble protein abundance of 0.995 ± 0.035. PI4K2A (UniProt Q9BTU6) showed an NP40-soluble protein abundance of 0.9734 ± 0.0076. In the case of UniProt Q96SK2 and related entries, the NP40-soluble protein abundance is reported as 1.13 ± 0.061. UniProt Q99767-2|Q99767 gave an NP40-soluble protein abundance of 0.982 ± 0.033. For UniProt Q99719 and related entries, the NP40-soluble protein abundance was 1.04 ± 0.027. MRI1 (UniProt Q9BV20) gave an NP40-soluble protein abundance of 0.962 ± 0.031. Work on MRPL32 (UniProt Q9BYC8) yielded an NP40-soluble protein abundance of 0.983 ± 0.017. In the case of HINT2 (UniProt Q9BX68), the NP40-soluble protein abundance is reported as 0.98 ± 0.044. “UniProt Q9BRR9-2|Q9BRR9-4|Q9BRR9-5|R4GN15” was tested, and the NP40-soluble protein abundance was 0.984 ± 0.005. DCTN5 (UniProt Q9BTE1) was tested, and the NP40-soluble protein abundance was 1.02 ± 0.064.

Reference: the supplement of paper PMC6411743
